Measurements taken from the supplement of paper PMC10689618.
Structures can show the parent of a compound that is named as a salt. Some of the results follow. Single values are uncertain, as repeats are few or missing.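 Primary human fetal astrocytes engulfed labelled rat cortical synaptosomes, measured as a red/green ratio corrected for calcein live-cell signal and scaled to the plate median. Toxicity meant calcein falling over 30%; decreased phagocytosis meant below 70% of median above 5 µM.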

How the values were obtained:
Human fetal astrocytes [1] = assay: loss of total cells relative to no-compound high-control median (toxicity); higher = more toxic (fewer cells); conditions: 24 h
Human fetal astrocytes [2] = assay: synaptosome phagocytosis (pHrodo/calcein intensity ratio) relative to plate median of data wells; higher = more phagocytosis; conditions: 24 h

Structure (SMILES) | loss of total cells (Human fetal astrocytes [1]; 1.39 µM) | loss of total cells (Human fetal astrocytes [1]; 2.78 µM) | loss of total cells (Human fetal astrocytes [1]; 5.56 µM) | loss of total cells (Human fetal astrocytes [1]; 11.11 µM) | loss of total cells (Human fetal astrocytes [1]; 22.22 µM) | synaptosome phagocytosis (Human fetal astrocytes [2]; 1.39 µM) | synaptosome phagocytosis (Human fetal astrocytes [2]; 2.78 µM) | synaptosome phagocytosis (Human fetal astrocytes [2]; 5.56 µM) | synaptosome phagocytosis (Human fetal astrocytes [2]; 11.11 µM) | synaptosome phagocytosis (Human fetal astrocytes [2]; 22.22 µM)
O=Cc1ccccc1O[C@@H]1O[C@H](CO)[C@@H](O)[C@H](O)[C@H]1O | -16.4% | -8.3% | -3.7% | 13.5% | -7.4% | 130% | 86.8% | 120% | 101% | 102%
COc1cc(/C=C/C(=O)O)ccc1O | 30.7% | -49.5% | 23.9% | 13.8% | 19.7% | 147% | 6.2% | 85.1% | 105% | 122%
Oc1c(I)cc(Cl)c2cccnc12 | 15.8% | -9.5% | 26.7% | 54.7% | 48.7% | 54.6% | 64.1% | 61.8% | 31% | 26.4%
O=C(O)CCCC[C@@H]1CCSS1 | 4% | 13.4% | -10.1% | -2.1% | 16.7% | 114% | 110% | 71.4% | 132% | 170%
CCCOc1ccc2[nH]c(NC(=O)OC)nc2c1 | -29.8% | -31% | -5.6% | 10.8% | 6.5% | 97% | 86.5% | 108% | 107% | 111%
CC(=O)Oc1cc(C)c2c(c1C(OC(C)=O)OC(C)=O)Oc1c(c(C)c(OC(C)=O)c3c1C(OC(C)=O)OC3=O)OC2=O (stereo not given) | -3.3% | 21.9% | -3.8% | 33.5% | 6.3% | 117% | 104% | 107% | 115% | 81.4%
CC(=O)O[C@@H]1CC2C(C)(CC[C@H](O)C2(C)C)C2CC[C@]3(C)C(=CC(=O)O[C@H]3c3ccoc3)C21C (stereo partly drawn) [3beta-HYDROXYDEOXODIHYDRODEOXYGEDUNIN] | 27.2% | 3.3% | 6.1% | 26.5% | 0.4% | 40.1% | 45.9% | 17.8% | 10.6% | 39.7%
O=c1[nH]c(=O)n([C@H]2C[C@H](O)[C@@H](CO)O2)cc1C(F)(F)F | 12.1% | -29.4% | 18% | 31.1% | 2.8% | 141% | 97.8% | 133% | 114% | 119%
C[C@@H]1C[C@H]2[C@@H]3CCC4=CC(=O)C=C[C@]4(C)[C@@]3(F)[C@@H](O)C[C@]2(C)[C@@]1(O)C(=O)CO | -11% | -41% | -45.3% | -22.2% | -8.2% | 98.8% | 94.9% | 109% | 100% | 82.9%
Cc1nnc(NS(=O)(=O)c2ccc(N)cc2)s1 | 5.6% | -16.6% | -20.9% | 3.7% | -20.4% | 123% | 132% | 114% | 102% | 106%
CCN1CCN(C(=O)N[C@@H](C(=O)N[C@@H]2C(=O)N3[C@@H]2SC(C)(C)[C@@H]3C(=O)O)c2ccccc2)C(=O)C1=O | -10.4% | 0.3% | -22.3% | -2.6% | 44.7% | 143% | 136% | 156% | 113% | 116%
CN(C)c1ccc(O)c2c1C[C@H]1C[C@H]3[C@H](N(C)C)C(=O)C(C(N)=O)=C(O)[C@@]3(O)C(=O)C1=C2O | 0% | -4.6% | 5.1% | 23.4% | 8.5% | 114% | 109% | 107% | 87.4% | 110%
O=c1c2ccccc2oc2ccccc12 | -7.6% | 1.3% | -4.6% | 35.5% | 5.6% | 72.9% | 87.7% | 104% | 115% | 83.7%
CCCCC(=O)Oc1ccccc1C(=O)O | -14.8% | -5.4% | -8.1% | 9.5% | 13.3% | 109% | 115% | 89.7% | 98.2% | 121%
COc1c(OC)c2occc2c2oc(=O)ccc12 | -13.4% | 6.6% | -18.3% | 38.7% | 9.3% | 99.7% | 108% | 79.9% | 106% | 115%
C[C@@H]1CC[C@@]2(OC1)O[C@H]1C[C@H]3[C@@H]4CC[C@H]5C[C@@H](O)CC[C@]5(C)[C@H]4CC(=O)[C@]3(C)[C@H]1[C@@H]2C | -6.1% | 19.9% | -2.9% | -6.3% | 20.5% | 88.7% | 129% | 85.6% | 106% | 137%
NC(CO)C(=O)NNCc1ccc(O)c(O)c1O (stereo not given) [Benserazide hydrochloride] | -12.4% | -2.1% | 12.3% | -3.1% | 7.9% | 116% | 101% | 106% | 124% | 118%
NCCCC(=O)O | 17% | 15.5% | 8.7% | 0.4% | 2.3% | 89% | 97.2% | 50.3% | 93.1% | 58.4%
N=C1C=CC(=C(c2ccc(N)cc2)c2ccc(N)cc2)C=C1 | -4.8% | 37.3% | 3.1% | 48.9% | 52% | 60.6% | 81.6% | 65.1% | 147% | 135%
O=C(O[C@@H]1Cc2c(O)cc(O)cc2O[C@@H]1c1cc(O)c(=O)c2c(O)c(O)cc([C@H]3Oc4cc(O)cc(O)c4C[C@H]3OC(=O)c3cc(O)c(O)c(O)c3)c2c1)c1cc(O)c(O)c(O)c1 | -7.6% | 15.9% | -4.6% | 29% | 18.1% | 98.2% | 109% | 79.9% | 92.6% | 72.4%
O=c1c(O)c(-c2ccccc2)oc2ccccc12 | -21.3% | -12.6% | -0.7% | 21.6% | 8.1% | 83.8% | 77.4% | 98.6% | 69.1% | 96%

Structure (SMILES) | loss of total cells (Human fetal astrocytes [1]; 1.39 µM) | loss of total cells (Human fetal astrocytes [1]; 2.78 µM) | loss of total cells (Human fetal astrocytes [1]; 5.56 µM) | loss of total cells (Human fetal astrocytes [1]; 11.11 µM) | loss of total cells (Human fetal astrocytes [1]; 22.22 µM) | synaptosome phagocytosis (Human fetal astrocytes [2]; 1.39 µM) | synaptosome phagocytosis (Human fetal astrocytes [2]; 2.78 µM) | synaptosome phagocytosis (Human fetal astrocytes [2]; 5.56 µM) | synaptosome phagocytosis (Human fetal astrocytes [2]; 11.11 µM) | synaptosome phagocytosis (Human fetal astrocytes [2]; 22.22 µM)
CCCCOc1ccc(C(=O)CCN2CCCCC2)cc1 | 14.5% | -7.1% | 16% | 41.2% | 73.3% | 90.9% | 80.5% | 82.1% | 48.2% | 65.4%
Cc1cc(O)c(C=O)c(O)c1C(=O)O | -18.9% | -9% | 8.1% | 2% | 1.5% | 95% | 65.2% | 146% | 92.1% | 117%
CC1(C)O[C@@H]2C[C@H]3[C@@H]4CCC5=CC(=O)CC[C@]5(C)[C@@]4(F)[C@@H](O)C[C@]3(C)[C@]2(C(=O)CCl)O1 | -46.8% | 24.6% | 14.3% | 47.5% | 10.9% | 74.4% | 99.9% | 64.7% | 99.7% | 75%
O=c1c(O)c(-c2ccc(O)cc2)oc2cc(O)cc(O)c12 | -5.4% | 25.6% | 4.3% | -7.9% | 23.5% | 102% | 116% | 108% | 92.3% | 61.3%
COc1ccc(-c2cc(=O)c3c(OC)c(OC)c(OC)cc3o2)cc1OC | 0.8% | -4% | 9.5% | 23% | 20.7% | 137% | 108% | 138% | 97.3% | 94.3%
CCOc1ccc2ccccc2c1C(=O)N[C@@H]1C(=O)N2[C@@H]1SC(C)(C)[C@@H]2C(=O)O | -30.7% | -25.3% | 1.5% | -2.3% | 12.5% | 109% | 101% | 122% | 94.6% | 117%
C[C@H](CCC(=O)NCC(=O)O)[C@H]1CC[C@H]2[C@@H]3[C@H](O)C[C@@H]4C[C@H](O)CC[C@]4(C)[C@H]3C[C@H](O)[C@]12C | 14.8% | 12.6% | 19.6% | -4.6% | 3.8% | 85.3% | 138% | 115% | 117% | 114%
CC(=O)N[C@@H](CC(C)C)C(=O)O | -5.4% | 1.1% | 2.2% | 9.6% | 9.1% | 89.3% | 86% | 97.6% | 104% | 58.6%
O=C1C=CC2=C3c4cc(O)c(O)cc4CC3(O)COC2=C1O (stereo not given) | -15.6% | 12.6% | 7.3% | 33.1% | 36.3% | 107% | 131% | 79.1% | 128% | 86.2%
CC(=O)OCC(CCn1cnc2cnc(N)nc21)COC(C)=O | -34.7% | -43.7% | 2.5% | -12.1% | -12.1% | 113% | 98.5% | 130% | 85.7% | 113%
COC(=O)C[C@H]1C2(C)CC34OC5(C)O[C@@]6([C@H](OC)C(OC(=O)C(C)C)[C@]7(C)C(/C(=C(/OC)C(C)C)C(=O)O[C@H]7c7ccoc7)[C@@]6(O5)[C@H](OC)[C@@]3(OC)C2OC(C)=O)[C@]14C (stereo not given in full) | 23.6% | -10.6% | -26.7% | 37.4% | 1.9% | 120% | 93.2% | 88.4% | 124% | 97.3%
COc1cc(C)c(C(=O)Oc2cc(C)c(C(=O)O)c(O)c2C)c(OC)c1C | -9% | -13.4% | -3.7% | 0% | 19.3% | 132% | 124% | 105% | 94.5% | 130%
Oc1c(Cl)cc(Cl)cc1Sc1cc(Cl)cc(Cl)c1O | 0% | -8.8% | 2.1% | 12.5% | 38% | 110% | 94.9% | 103% | 97.5% | 54.8%
O=C(O)COCCN1CCN(C(c2ccccc2)c2ccc(Cl)cc2)CC1 (stereo not given) | 0% | -10.1% | -8.7% | -19.5% | 9.1% | 94.1% | 103% | 89.4% | 104% | 93.9%
CC1=CC(=O)[C@H]2C(C)(C)CCC[C@]2(C)[C@@]1(O)CCc1ccoc1 | -10.5% | -5.3% | 29.8% | 45.8% | -15.2% | 70.7% | 114% | 110% | 136% | 85.8%
COc1ccc(-c2cc(=O)c3c(O)cc(O)cc3o2)cc1O | -12.3% | -15.5% | 7.3% | 20.3% | 10.4% | 80.2% | 96.5% | 127% | 85.9% | 68.4%
COC(=O)C[C@H]1C(C)(C)C2(O)OC34CC2C(=O)[C@]1(C)C3CC[C@]1(C)C4=CC(=O)O[C@H]1c1ccoc1 (stereo partly drawn) [8beta-HYDROXYCARAPIN, 3,8-HEMIACETAL] | -4.7% | 1.3% | 36.6% | -10.3% | 3.3% | 109% | 78% | 144% | 83.6% | 148%
O=C(O)CCCCCCCCCCCC[C@@H]1C=CCC1 | 16.2% | 20.6% | 12.3% | -7.9% | 18.2% | 132% | 135% | 93.8% | 122% | 144%
CCCCC(CC)CCC(CC(C)C)OS(=O)(=O)O (stereo not given) | 6.9% | 15.5% | 17.4% | 2.1% | 15.9% | 135% | 117% | 116% | 142% | 96.9%
CC(=O)[C@@]1(O)CC[C@H]2[C@@H]3C=C(Cl)C4=CC(=O)[C@@H]5C[C@@H]5[C@]4(C)[C@H]3CC[C@@]21C | 3.2% | 24.2% | 6.5% | -16.3% | 15.2% | 97.2% | 117% | 110% | 82.2% | 112%
COC(=O)[C@@H]1OC(=O)C2OC23[C@@]1(C)CCC1[C@]2(C)C(C[C@@H](O)[C@]13C)C(C)(C)[C@H](OC(C)=O)C[C@@H]2OC(C)=O (stereo not given in full) | -11.2% | 2.7% | 27.5% | 1.9% | 4.1% | 93.4% | 112% | 133% | 114% | 129%

Rewritten in CSV form: entries from further up.
Structure (SMILES),loss of total cells (Human fetal astrocytes [1]; 1.39 µM),loss of total cells (Human fetal astrocytes [1]; 2.78 µM),loss of total cells (Human fetal astrocytes [1]; 5.56 µM),loss of total cells (Human fetal astrocytes [1]; 11.11 µM),loss of total cells (Human fetal astrocytes [1]; 22.22 µM),synaptosome phagocytosis (Human fetal astrocytes [2]; 1.39 µM),synaptosome phagocytosis (Human fetal astrocytes [2]; 2.78 µM),synaptosome phagocytosis (Human fetal astrocytes [2]; 5.56 µM),synaptosome phagocytosis (Human fetal astrocytes [2]; 11.11 µM),synaptosome phagocytosis (Human fetal astrocytes [2]; 22.22 µM)
NC(CO)C(=O)NNCc1ccc(O)c(O)c1O (stereo not given) [Benserazide hydrochloride],-12.4%,-2.1%,12.3%,-3.1%,7.9%,116%,101%,106%,124%,118%
NCCCC(=O)O,17%,15.5%,8.7%,0.4%,2.3%,89%,97.2%,50.3%,93.1%,58.4%
N=C1C=CC(=C(c2ccc(N)cc2)c2ccc(N)cc2)C=C1,-4.8%,37.3%,3.1%,48.9%,52%,60.6%,81.6%,65.1%,147%,135%
